Measurements as given in PMC1173138.
No constants are given. Whether binding was seen depends on the method and setting. Binding seen in cells or lysates may run through a third protein. Some binding calls cover weakened binding; strength is not graded here.

By UniProt entry, the sequences of proteins in these tests, tags left out.
UniProt Q03135: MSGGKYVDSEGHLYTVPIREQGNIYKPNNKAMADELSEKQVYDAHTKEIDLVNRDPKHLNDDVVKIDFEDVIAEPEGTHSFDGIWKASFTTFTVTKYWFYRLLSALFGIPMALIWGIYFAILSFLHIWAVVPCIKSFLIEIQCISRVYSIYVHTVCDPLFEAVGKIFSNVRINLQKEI
UniProt P08134: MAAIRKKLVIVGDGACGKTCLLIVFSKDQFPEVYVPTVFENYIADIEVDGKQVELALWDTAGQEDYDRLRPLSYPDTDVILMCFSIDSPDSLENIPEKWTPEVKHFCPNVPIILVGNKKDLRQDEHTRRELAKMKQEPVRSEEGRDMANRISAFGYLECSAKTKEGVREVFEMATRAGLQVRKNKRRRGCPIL

Target: Caveolin-1 (human (endogenous in BxPC-3)) (UniProt Q03135)
Test: co-IP; RIPA lysate (1 mg in the methods, 500 ug in the legend) of BxPC-3, HPAF-II and HPAF-II/dnRhoC cells; pre-incubated with normal isotype control 1 h; overnight with polyclonal or monoclonal anti-cav-1 and Protein A/G agarose at 4 C; 4 washes with ice-cold PBS; immunoblot for RhoC; normal IgG as negative control

binding: binds
Substance: RhoC GTPase (from UniProt P08134 1-193)
